Reference: CN113045659A
Substitutions are numbered along the chain they refer to. No constants are given. Whether binding was seen depends on the method and setting. Some results given as binding are weak or reduced against the parent protein; the word gives no strength.

B1: 137-4 (antibody, IgG1, V domains shown, not shown: large carriers)
VH: QVQLVQSGAEVKKPGSSVKVSCKASGYSFTGYYIHWVRQAPGQGLEWMGRINPYNGATTYNQNFKDRVTITVDKSTSTAYMELSSLRSEDTAVYYCARFHYGAVDYWGQGTLVTVSS
VL: DIQMTQSPSSLSASVGDRVTITCKASQDINTYLTWYQQKPGKAPKTLIYRANILVDGVPSRFSGSGSGTDFTLTISSLQPEDFATYYCLQYEEFPLTFGGGTKVEIKR
B2: 137-5 (antibody, IgG1, V domains shown, not shown: large carriers)
VH: B1 VH with V104A
VL: B1 VL with E92N
B3: 137-6 (antibody, IgG1, V domains shown, not shown: large carriers)
VH: B1 VH with V104P, D105E
VL: B1 VL with E92A
B4: 137-7 (antibody, IgG1, V domains shown, not shown: large carriers)
VH: B1 VH with V104P, D105N
VL: B1 VL with E92D, E93D
B5: 137-8 (antibody, IgG1, V domains shown, not shown: large carriers)
VH: B1 VH with V104P, Y106F
VL: B1 VL with E92D, E93Q
B6: 137-9 (antibody, IgG1, V domains shown, not shown: large carriers)
VH: B1 VH with V104P, Y106L
VL: B1 VL with E92D, E93A

biological target: CHOK1-cynoCD73细胞上的猴CD73 (monkey (猴; cyno)); assay: flow cytometry on CHOK1-cynoCD73 cells, Anti-hFC-APC

| Binder | binding |
| --- | --- |
| B1 | binds |
| B2 | binds |
| B3 | binds |
| B4 | binds |
| B5 | binds |
| B6 | binds |
